Experimental data as given in the supplement of paper PMC10849652.
Some of the results follow.

The chains behind the UniProt entries cited, without tags or fusion partners. Where a name states a change or a piece, a line headed by the entry shows the natural chain unless it says otherwise.
UniProt P30086: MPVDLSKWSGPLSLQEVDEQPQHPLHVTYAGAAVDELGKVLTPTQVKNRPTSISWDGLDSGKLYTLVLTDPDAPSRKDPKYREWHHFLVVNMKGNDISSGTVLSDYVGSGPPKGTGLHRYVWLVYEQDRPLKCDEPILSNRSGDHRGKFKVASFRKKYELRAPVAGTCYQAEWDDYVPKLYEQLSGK
UniProt Q96AQ6: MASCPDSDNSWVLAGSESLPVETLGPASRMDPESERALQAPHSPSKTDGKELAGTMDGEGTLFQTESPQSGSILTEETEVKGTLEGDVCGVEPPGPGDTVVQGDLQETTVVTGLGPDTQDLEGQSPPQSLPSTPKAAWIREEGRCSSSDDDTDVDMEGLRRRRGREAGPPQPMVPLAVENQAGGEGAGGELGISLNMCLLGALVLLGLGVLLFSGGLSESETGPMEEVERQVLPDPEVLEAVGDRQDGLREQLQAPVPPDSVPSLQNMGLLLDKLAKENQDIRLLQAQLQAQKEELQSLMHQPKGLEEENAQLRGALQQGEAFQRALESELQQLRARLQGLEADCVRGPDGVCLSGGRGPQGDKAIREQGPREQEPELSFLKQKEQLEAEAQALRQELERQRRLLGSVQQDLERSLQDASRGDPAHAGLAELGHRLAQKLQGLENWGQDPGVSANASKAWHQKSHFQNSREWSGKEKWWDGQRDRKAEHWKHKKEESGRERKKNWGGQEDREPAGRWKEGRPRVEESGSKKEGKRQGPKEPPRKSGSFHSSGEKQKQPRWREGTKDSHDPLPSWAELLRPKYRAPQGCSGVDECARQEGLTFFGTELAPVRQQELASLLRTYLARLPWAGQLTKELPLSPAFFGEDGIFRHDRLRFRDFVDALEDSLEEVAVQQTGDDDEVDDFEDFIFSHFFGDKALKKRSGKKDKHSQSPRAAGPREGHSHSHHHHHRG
UniProt P57721, whole entry, looked up: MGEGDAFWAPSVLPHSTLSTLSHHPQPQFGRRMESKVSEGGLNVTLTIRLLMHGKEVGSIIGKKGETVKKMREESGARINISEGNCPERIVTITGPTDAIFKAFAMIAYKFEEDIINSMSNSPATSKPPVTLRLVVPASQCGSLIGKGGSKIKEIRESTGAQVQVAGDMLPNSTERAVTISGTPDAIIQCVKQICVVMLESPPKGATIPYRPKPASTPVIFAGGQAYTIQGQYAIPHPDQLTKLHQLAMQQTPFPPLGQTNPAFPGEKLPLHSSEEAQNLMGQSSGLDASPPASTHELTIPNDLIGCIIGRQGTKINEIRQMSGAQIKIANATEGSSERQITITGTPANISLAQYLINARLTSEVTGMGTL
UniProt P05165: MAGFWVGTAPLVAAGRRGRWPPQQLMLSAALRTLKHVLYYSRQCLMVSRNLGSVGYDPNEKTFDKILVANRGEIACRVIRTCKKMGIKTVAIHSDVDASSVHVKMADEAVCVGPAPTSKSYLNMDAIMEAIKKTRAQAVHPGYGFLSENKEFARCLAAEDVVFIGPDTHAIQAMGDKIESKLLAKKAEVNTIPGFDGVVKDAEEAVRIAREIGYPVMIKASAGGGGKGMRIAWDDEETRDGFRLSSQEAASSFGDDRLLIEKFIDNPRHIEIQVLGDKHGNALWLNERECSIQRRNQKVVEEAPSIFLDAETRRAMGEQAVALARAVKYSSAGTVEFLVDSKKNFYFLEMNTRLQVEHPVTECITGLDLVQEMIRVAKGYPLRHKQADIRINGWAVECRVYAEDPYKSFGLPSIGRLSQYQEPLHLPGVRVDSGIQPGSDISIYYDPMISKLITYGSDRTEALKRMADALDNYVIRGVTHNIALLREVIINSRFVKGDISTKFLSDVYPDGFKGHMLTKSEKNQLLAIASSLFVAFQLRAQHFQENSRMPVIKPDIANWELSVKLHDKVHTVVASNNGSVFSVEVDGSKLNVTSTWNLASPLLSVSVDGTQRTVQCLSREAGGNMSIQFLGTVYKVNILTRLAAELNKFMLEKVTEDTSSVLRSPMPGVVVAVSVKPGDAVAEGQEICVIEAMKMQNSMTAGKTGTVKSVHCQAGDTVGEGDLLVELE
UniProt Q8N5Y8: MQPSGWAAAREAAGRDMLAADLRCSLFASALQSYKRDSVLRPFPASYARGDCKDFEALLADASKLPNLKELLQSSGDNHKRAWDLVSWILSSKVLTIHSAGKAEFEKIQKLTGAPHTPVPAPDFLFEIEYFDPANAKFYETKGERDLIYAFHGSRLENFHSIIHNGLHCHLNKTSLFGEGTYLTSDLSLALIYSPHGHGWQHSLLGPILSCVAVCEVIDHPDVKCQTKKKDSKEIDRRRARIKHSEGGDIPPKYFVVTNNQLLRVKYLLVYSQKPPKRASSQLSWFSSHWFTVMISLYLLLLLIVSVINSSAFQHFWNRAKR
UniProt Q86TB9: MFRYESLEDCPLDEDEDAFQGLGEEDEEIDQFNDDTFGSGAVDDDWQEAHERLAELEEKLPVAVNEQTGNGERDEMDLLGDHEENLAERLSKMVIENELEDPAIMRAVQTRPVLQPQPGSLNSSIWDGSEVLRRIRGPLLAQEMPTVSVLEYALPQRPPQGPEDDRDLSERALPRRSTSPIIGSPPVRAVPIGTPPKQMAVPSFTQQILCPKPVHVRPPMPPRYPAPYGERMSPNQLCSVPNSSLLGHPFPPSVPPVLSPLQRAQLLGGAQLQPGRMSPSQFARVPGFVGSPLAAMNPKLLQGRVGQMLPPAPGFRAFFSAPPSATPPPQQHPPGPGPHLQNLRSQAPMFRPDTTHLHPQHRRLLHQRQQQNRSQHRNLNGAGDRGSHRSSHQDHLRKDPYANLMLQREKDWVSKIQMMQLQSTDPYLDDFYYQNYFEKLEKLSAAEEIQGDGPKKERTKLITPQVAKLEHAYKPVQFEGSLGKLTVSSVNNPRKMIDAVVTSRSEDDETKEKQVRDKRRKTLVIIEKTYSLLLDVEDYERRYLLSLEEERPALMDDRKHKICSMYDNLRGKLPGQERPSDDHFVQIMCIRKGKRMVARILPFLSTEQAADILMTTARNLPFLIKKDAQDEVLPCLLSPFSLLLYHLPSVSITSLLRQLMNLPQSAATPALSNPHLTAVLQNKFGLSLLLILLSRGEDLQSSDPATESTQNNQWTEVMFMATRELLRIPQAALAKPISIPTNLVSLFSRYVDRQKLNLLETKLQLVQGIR
UniProt P08559, whole entry, looked up: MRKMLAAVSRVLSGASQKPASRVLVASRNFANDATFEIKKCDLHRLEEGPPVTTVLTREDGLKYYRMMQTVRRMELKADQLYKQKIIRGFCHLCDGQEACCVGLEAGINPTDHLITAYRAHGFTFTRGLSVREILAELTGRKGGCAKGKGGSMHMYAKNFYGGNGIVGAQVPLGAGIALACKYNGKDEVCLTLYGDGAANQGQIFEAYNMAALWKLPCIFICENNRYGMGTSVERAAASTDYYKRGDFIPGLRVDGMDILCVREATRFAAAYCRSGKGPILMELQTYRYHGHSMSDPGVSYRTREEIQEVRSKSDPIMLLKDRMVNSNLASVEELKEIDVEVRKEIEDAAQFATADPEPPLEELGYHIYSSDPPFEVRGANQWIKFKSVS
UniProt P61457: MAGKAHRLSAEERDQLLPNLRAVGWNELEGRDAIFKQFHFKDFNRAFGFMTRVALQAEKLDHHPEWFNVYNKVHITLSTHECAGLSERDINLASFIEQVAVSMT
UniProt Q15366, whole entry, looked up: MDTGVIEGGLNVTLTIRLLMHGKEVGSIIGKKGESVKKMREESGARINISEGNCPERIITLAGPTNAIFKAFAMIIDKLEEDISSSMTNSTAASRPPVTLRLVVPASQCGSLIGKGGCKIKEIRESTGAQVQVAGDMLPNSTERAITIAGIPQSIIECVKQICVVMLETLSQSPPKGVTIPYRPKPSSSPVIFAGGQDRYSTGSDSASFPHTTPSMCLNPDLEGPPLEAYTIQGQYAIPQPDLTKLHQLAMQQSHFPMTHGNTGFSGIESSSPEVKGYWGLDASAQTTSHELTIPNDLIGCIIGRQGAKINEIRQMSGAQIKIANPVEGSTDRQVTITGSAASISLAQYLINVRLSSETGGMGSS
UniProt Q7L3T8: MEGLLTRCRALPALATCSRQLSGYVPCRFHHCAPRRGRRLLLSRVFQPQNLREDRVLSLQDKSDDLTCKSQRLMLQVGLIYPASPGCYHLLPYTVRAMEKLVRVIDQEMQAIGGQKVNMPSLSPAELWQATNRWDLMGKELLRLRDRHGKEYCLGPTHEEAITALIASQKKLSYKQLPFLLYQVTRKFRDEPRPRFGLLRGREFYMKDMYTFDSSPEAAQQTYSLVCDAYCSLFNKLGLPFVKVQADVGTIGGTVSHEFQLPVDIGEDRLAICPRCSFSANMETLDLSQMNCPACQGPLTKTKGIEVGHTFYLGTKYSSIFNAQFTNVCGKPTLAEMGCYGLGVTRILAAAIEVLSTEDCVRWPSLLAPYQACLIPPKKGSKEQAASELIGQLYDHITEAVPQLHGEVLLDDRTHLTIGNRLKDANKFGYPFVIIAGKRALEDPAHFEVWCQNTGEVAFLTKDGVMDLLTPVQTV
UniProt Q9BVG4: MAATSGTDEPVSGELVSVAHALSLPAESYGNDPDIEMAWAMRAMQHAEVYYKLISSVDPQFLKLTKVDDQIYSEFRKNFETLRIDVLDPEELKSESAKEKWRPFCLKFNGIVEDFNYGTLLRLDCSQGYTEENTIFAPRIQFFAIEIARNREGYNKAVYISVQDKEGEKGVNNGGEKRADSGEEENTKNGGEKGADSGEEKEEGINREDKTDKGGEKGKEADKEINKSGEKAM
UniProt Q96GD0: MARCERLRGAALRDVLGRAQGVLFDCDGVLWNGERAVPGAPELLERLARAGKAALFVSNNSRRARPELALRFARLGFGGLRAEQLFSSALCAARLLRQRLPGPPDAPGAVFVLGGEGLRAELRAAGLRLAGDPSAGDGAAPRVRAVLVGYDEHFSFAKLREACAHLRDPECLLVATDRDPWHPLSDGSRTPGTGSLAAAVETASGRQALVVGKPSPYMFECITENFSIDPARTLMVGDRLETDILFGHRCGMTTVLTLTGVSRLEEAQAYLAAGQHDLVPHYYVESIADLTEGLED
UniProt O00151: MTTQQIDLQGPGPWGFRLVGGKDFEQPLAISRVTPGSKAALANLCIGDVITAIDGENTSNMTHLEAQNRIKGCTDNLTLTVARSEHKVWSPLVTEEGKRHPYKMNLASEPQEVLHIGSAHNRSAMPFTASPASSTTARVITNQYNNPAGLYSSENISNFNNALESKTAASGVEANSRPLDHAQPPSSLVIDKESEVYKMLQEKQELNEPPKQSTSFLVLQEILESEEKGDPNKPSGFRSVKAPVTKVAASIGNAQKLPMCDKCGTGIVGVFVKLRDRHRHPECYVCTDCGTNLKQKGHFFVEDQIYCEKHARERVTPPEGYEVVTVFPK
UniProt Q15121, whole entry, looked up: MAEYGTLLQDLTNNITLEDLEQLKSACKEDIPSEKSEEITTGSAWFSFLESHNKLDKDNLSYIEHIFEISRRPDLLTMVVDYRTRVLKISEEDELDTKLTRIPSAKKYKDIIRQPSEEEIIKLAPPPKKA
UniProt Q8NBP7, whole entry, looked up: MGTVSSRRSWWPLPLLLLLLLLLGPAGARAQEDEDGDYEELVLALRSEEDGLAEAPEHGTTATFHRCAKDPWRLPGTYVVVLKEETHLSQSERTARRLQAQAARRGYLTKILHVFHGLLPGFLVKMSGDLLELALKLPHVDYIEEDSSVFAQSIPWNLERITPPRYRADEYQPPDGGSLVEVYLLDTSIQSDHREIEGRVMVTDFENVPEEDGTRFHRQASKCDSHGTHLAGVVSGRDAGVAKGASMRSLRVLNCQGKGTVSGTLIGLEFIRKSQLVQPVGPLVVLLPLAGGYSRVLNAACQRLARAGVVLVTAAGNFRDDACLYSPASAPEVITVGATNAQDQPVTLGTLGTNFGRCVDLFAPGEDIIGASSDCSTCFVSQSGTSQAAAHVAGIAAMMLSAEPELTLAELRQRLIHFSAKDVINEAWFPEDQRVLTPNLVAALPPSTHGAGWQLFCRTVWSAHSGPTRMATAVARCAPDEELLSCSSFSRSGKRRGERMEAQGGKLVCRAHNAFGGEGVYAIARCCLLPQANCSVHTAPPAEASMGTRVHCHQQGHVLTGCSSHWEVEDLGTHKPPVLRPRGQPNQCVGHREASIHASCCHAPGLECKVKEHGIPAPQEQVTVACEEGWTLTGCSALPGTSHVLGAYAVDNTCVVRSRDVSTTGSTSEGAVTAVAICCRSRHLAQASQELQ
UniProt Q13371: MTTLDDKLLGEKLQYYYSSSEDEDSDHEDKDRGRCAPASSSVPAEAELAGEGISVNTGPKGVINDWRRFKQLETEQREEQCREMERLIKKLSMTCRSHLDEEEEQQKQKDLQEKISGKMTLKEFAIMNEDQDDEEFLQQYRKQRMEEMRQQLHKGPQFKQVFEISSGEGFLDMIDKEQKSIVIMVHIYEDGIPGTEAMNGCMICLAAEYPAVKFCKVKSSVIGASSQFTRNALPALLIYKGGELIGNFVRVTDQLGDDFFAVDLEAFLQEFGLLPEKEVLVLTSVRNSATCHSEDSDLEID
UniProt Q9UHV9, whole entry, looked up: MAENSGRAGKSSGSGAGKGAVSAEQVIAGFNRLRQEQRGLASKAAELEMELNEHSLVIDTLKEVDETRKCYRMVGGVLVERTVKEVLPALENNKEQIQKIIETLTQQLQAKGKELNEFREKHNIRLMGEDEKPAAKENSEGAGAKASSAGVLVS

Legend:
Assay in all cases: log2 fold change, soluble protein after heating vs DMSO (PISA); higher = thermal stabilisation; K562 lysate, 10 uM; active = over 0.2 and 3.5 SD of the protein, either way, in both replicates (recomputed)
[1] = compound: C=CC(=O)N1CCC[C@@H](n2nc(-c3ccc(Oc4ccccc4)cc3)c3c(N)ncnc32)C1 [ibrutinib]
How it was run: (§1)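 Pellets of K562 cells were dounce-homogenised in PBS pH 7.4 with 1 mM MgCl2, and the crude extract was held at 1 mg/mL protein for a 30 min treatment with 10 μM compound. Aliquots were heated for 3 min over 48°C-58°C and pooled before NP-40 was added to 0.5% at 4°C. The supernatant from 21,000xg for 90 min was quantified by TMTpro 16plex LC-MS/MS with channel sums equalised. Values are reported from duplicates as log-two fold change in thermal stability relative to solvent controls.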

[2] = compound: CC(=O)c1cnc2ccc(-c3cc(Cl)c(O)c(Cl)c3)nc2c1N[C@H]1CC[C@H](CN(C)C)CC1
How it was run: as §1

[3] = compound: CC(C)(C)Cn1c(N)nc2ccc(-c3[nH]c(C(C)(C)C)nc3-c3ccc(F)cc3)nc21 [ralimetinib]
How it was run: as §1

[4] = compound: CC(C)(O)CC(=O)NCCn1ccc2ncnc(Nc3ccc(Oc4cccc(C(F)(F)F)c4)c(Cl)c3)c21
How it was run: as §1

[5] = compound: CC(C)C1=C2N=C(C=C(N2N=C1)NCC3=CC=CC=C3)NCCCCCCN
How it was run: as §1

[6] = compound: CC1=C(C(CC(=O)N1)C2=CC=C(C=C2)C(F)(F)F)C(=O)NC3=C(C=C4C(=C3)C=NN4)F
How it was run: as §1

[7] = compound: CC1=C(C2=C(C=C1)C(=O)C3=CC=CC=C3N2CCCN)C
How it was run: as §1

[8] = compound: CC1=C(C=C(C=C1)NC(=O)C2=CC(=CC=C2)C(C)(C)C#N)NC3=CC4=C(C=C3)N=CN(C4=O)C
How it was run: as §1

[9] = compound: CC1=C(C=C(C=C1)NC(=O)C2=CC(=CC=C2)N(C)C)NC(=O)C3=CC=C(C=C3)O
How it was run: as §1

[10] = compound: CC1=CC=C(C=C1)SC2=C3C=C(SC3=CN=C2)C(=O)N
How it was run: as §1

Measured: log2 fold change

PDPK1 (UniProt O15530)
inactive: [1] 0.026 | [2] 0.236 | [3] 0.067 | [4] -0.075 | [5] 0.021 | [6] 0.163 | [7] -0.034 | [8] -0.056 | [9] -0.006 | [10] -0.021

PEBP1 (UniProt P30086)
inactive: [1] 0.063 | [2] 0.013 | [3] -0.004 | [4] 0.006 | [5] 0.01 | [6] -0.006 | [7] 0.016 | [8] 0.024 | [9] -0.014 | [10] 0

PBXIP1 (UniProt Q96AQ6)
inactive: [1] 0.054 | [2] -0.013 | [3] 0.038 | [4] -0.076 | [5] 0.006 | [6] 0.011 | [7] -0.056 | [8] -0.023 | [9] -0.009 | [10] 0.001

PCBP3 (UniProt P57721)
inactive: [1] -0.026 | [2] -0.007 | [3] -0.005 | [4] -0.021 | [5] 0 | [6] -0.04 | [7] -0.006 | [8] 0.053 | [9] -0.02 | [10] -0.028

PCGF5 (UniProt Q86SE9)
inactive: [1] 0.119 | [2] -0.019 | [3] 0.076 | [4] -0.019 | [5] -0.064 | [6] -0.047 | [7] -0.016 | [8] -0.11 | [9] 0.051 | [10] 0.017

PFKP (UniProt Q01813)
inactive: [1] -0.001 | [2] 0.009 | [3] 0.004 | [4] -0.029 | [5] 0.001 | [6] -0.015 | [7] 0.007 | [8] 0.003 | [9] 0.002 | [10] 0.062

PCCA (UniProt P05165)
inactive: [1] 0.023 | [2] 0.019 | [3] 0 | [4] -0.067 | [5] -0.006 | [6] 0.041 | [7] 0.067 | [8] -0.012 | [9] -0.02 | [10] 0.035

PEX10 isoform 2 (UniProt O60683)
inactive: [1] 0.173

PDXDC1 (UniProt Q6P996)
inactive: [1] -0.006 | [2] 0.051 | [3] 0.071 | [4] -0.017 | [5] 0.001 | [6] 0.014 | [7] -0.024 | [8] -0.019 | [9] 0.024 | [10] 0.022

PARP16 isoform 3 (UniProt Q8N5Y8)
inactive: [1] -0.083 | [2] -0.039 | [3] 0.019 | [4] -0.081 | [5] 0.012 | [6] -0.058 | [7] -0.078 | [8] -0.016 | [9] -0.012 | [10] 0.183

PCBP1 (UniProt Q15365)
inactive: [1] 0.022 | [2] 0.012 | [3] -0.015 | [4] -0.014 | [5] 0.005 | [6] -0.051 | [7] -0.022 | [8] 0.061 | [9] -0.014 | [10] -0.021

PATL1 (UniProt Q86TB9)
inactive: [1] -0.01 | [2] 0.035 | [3] -0.004 | [4] -0.098 | [5] -0.098 | [6] 0.007 | [7] 0.011 | [8] -0.03 | [9] -0.012 | [10] -0.04

PDHA1 isoform 4 (UniProt P08559)
inactive: [1] 0.024 | [2] -0.009 | [3] 0.017 | [4] -0.006 | [5] 0.046 | [6] 0.016 | [7] -0.077 | [8] 0.024 | [9] -0.003 | [10] 0.016

PECAM1 (UniProt P16284)
inactive: [1] 0.024 | [2] 0 | [3] 0.003 | [4] -0.008 | [5] -0.025 | [6] -0.02 | [7] 0.032 | [8] 0.055 | [9] -0.035 | [10] -0.025

PCBD1 (UniProt P61457)
inactive: [1] 0.103 | [2] 0.058 | [3] -0.029 | [4] -0.007 | [5] -0.019 | [6] 0.018 | [7] -0.05 | [8] 0.075 | [9] 0.016 | [10] -0.017

PCBP2 isoform 8 (UniProt Q15366)
inactive: [1] 0.15 | [2] 0.003 | [3] -0.003 | [4] -0.041 | [5] -0.005 | [6] -0.011 | [7] -0.007 | [8] 0.071 | [9] -0.05 | [10] -0.043

PEX11B (UniProt O96011)
inactive: [1] -0.008 | [2] 0.005 | [3] 0.007 | [4] -0.02 | [5] 0.04 | [6] -0.079 | [7] 0 | [8] 0.019 | [9] 0.003 | [10] -0.005

PARS2 (UniProt Q7L3T8)
inactive: [1] -0.004 | [2] 0.006 | [3] 0.03 | [4] -0.017 | [5] -0.029 | [6] 0.015 | [7] -0.051 | [8] 0.004 | [9] 0.019 | [10] 0.013

PEF1 (UniProt Q9UBV8)
inactive: [1] 0.009 | [2] -0.021 | [3] -0.034 | [4] -0.036 | [5] -0.029 | [6] -0.025 | [7] -0.004 | [8] 0.021 | [9] 0.01 | [10] -0.01

PBDC1 (UniProt Q9BVG4)
inactive: [1] -0.044 | [2] -0.003 | [3] -0.032 | [4] -0.025 | [5] 0.005 | [6] 0.043 | [7] 0.001 | [8] -0.01 | [9] -0.022 | [10] 0.005

2 successive records from above, quoted:
PEX11B (UniProt O96011)
inactive: [1] -0.008 | [2] 0.005 | [3] 0.007 | [4] -0.02 | [5] 0.04 | [6] -0.079 | [7] 0 | [8] 0.019 | [9] 0.003 | [10] -0.005

PARS2 (UniProt Q7L3T8)
inactive: [1] -0.004 | [2] 0.006 | [3] 0.03 | [4] -0.017 | [5] -0.029 | [6] 0.015 | [7] -0.051 | [8] 0.004 | [9] 0.019 | [10] 0.013

Remaining list, next part.

PDXP (UniProt Q96GD0)
inactive: [1] 0.01 | [2] -0.005 | [3] 0.006 | [4] -0.006 | [5] -0.024 | [6] -0.047 | [7] 0.01 | [8] 0.04 | [9] -0.04 | [10] -0.008

PDLIM1 (UniProt O00151)
inactive: [1] -0.005 | [2] -0.009 | [3] -0.017 | [4] -0.004 | [5] 0.01 | [6] -0.015 | [7] -0.007 | [8] -0.002 | [9] -0.005 | [10] -0.024

PCYT1B (UniProt Q9Y5K3)
inactive: [1] -0.051 | [2] -0.007 | [3] 0.003 | [4] 0.013 | [5] -0.042 | [6] -0.039 | [7] -0.03 | [8] 0.016 | [9] -0.002 | [10] 0.026

PDIA3 (UniProt P30101)
inactive: [1] -0.006 | [2] 0.01 | [3] -0.017 | [4] 0.06 | [5] -0.006 | [6] -0.003 | [7] 0.025 | [8] -0.024 | [9] -0.019 | [10] 0.007

PEA15 isoform 2 (UniProt Q15121)
inactive: [1] 0.051 | [2] -0.047 | [3] 0.005 | [4] -0.083 | [5] 0.023 | [6] -0.059 | [7] -0.007 | [8] 0.056 | [9] 0 | [10] -0.011

PCSK9 (UniProt Q8NBP7)
inactive: [1] -0.032 | [2] -0.028 | [3] 0.043 | [4] -0.05 | [5] -0.044 | [6] -0.036 | [7] -0.039 | [8] 0.048 | [9] -0.062 | [10] 0.011

PAXIP1 (UniProt Q6ZW49)
inactive: [1] 0.008 | [2] 0.051 | [3] 0.029 | [4] 0.007 | [5] 0.009 | [6] 0.074 | [7] -0.005 | [8] -0.013 | [9] 0.007 | [10] 0.081

PDCL (UniProt Q13371)
inactive: [1] 0.002 | [2] -0.028 | [3] 0.006 | [4] -0.057 | [5] 0.027 | [6] -0.018 | [7] -0.047 | [8] 0.04 | [9] 0.015 | [10] -0.006

PFDN2 (UniProt Q9UHV9)
inactive: [1] 0.103 | [2] 0.006 | [3] 0.08 | [4] 0.08 | [5] 0.005 | [6] 0.016 | [7] 0.034 | [8] -0.017 | [9] -0.033 | [10] -0.022

PDIA3 (UniProt H7BZJ3)
inactive: [1] -0.006 | [2] 0.05 | [3] -0.16 | [4] -0.006 | [5] -0.016 | [6] -0.032 | [7] 0.038 | [8] 0.011 | [9] -0.067 | [10] 0.003
